Measured values published in paper PMC4266902, “Néstor-Guillermo Progeria Syndrome: a biochemical insight into Barrier-to-Autointegration Factor 1, alanine 12 threonine mutation” (BMC Molecular Biology, 2014).
No constants are given. Whether binding was seen depends on the method and setting. In cells and extracts the contact can be indirect. A result given as binding can be weak or reduced; the word gives no strength. Sequences can lack the tags named with a protein.

Biological target: T1, 3x FLAG-tagged wild type BANF1 (human) (UniProt O75531)
T1 sequence: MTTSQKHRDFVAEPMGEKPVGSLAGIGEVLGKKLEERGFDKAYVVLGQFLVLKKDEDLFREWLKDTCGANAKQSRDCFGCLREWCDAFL
Experiment: co-IP; HeLa cells transfected for 24 h; total protein extract treated with Benzonase to degrade genomic DNA; 3x FLAG BANF1 immunoprecipitated with M2 magnetic FLAG beads; eluent blotted for Lamin, Emerin and Histone H3

Q: How did the binding turn out when Lamin (human (endogenous in HeLa)) was run?
A: binds
